Experimental data taken from patent publication EP4785953A1.
These are yes or no findings as the source states them, for the method shown. Some results given as binding are weak or reduced against the parent protein; the word gives no strength.

Protein sequences, listed by entry. Tags and fused reporters are not part of them. Residues count along the entry.
UniProt P08581, residues 25-932: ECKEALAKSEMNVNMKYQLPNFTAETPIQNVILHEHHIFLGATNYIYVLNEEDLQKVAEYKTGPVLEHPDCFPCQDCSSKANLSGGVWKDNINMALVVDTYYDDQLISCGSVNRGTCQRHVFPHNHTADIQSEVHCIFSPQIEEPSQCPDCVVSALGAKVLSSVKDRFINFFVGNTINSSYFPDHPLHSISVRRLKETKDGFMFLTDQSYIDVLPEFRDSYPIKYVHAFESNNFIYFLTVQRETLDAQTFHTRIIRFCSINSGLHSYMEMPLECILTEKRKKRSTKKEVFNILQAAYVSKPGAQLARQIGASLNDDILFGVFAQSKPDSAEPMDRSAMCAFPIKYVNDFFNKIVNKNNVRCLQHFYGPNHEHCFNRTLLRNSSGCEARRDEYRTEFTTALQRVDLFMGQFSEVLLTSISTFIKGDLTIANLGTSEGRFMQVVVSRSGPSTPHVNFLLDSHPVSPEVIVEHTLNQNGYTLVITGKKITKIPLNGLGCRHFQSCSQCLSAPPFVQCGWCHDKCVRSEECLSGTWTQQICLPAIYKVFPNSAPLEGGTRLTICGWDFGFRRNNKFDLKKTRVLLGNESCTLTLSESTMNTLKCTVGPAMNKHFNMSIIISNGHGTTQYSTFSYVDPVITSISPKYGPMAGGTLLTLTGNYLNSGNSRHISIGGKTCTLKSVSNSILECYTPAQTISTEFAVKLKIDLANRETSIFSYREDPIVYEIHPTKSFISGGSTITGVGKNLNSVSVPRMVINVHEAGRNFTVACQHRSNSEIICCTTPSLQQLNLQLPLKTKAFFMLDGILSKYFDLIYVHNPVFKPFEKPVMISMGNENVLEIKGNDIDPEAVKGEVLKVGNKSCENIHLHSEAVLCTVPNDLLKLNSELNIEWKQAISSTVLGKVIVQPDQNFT

Target: human c-MET protein (human) (UniProt P08581)
Experiment: ForteBio BLI affinity measurement

B1: anti-c-MET antibody-1 (antibody, V domains shown)
VH: EVQLQESGPGLVKPSETLSLTCTVSGGSVTSVNYYWKWIRQPPGKGLEWIGYISYSGNTNYNPSLKSRVTISVDTSKNQFSLKLSSVTAADTAVYYCVRAPYYYMDVWSKGTTVTVSS
VL: DIVMTQSPSSVSASVGDRVTITCRASQGISSWLAWYQQKPGKAPKLLIYAVSSLQSGVPSRFSGSGSGTDFTLTISSLQPEDFATYFCQQANSFPLTFGGGTKVEIK
- binding: binds
